# Measurements: article PMC5586339
# The chains behind the UniProt entries cited, without tags or fusion partners. Where a name states a change or a piece, a line headed by the entry shows the natural chain unless it says otherwise. A line that says so, or that is headed by a name, gives the form on record, which may keep a tag or linker. Residues count along the entry.
# UniProt Q9CZN4: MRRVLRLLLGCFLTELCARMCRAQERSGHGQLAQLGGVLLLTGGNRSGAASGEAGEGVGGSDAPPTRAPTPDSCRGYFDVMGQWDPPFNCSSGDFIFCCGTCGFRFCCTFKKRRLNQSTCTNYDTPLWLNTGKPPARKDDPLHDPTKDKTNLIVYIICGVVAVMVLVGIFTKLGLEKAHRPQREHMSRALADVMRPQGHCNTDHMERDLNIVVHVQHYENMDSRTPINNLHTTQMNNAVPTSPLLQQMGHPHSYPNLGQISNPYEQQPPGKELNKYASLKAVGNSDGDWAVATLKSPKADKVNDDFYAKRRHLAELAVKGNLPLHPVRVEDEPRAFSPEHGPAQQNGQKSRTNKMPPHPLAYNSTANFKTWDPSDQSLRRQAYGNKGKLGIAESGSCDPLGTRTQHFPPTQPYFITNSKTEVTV
# FLAG-tagged full-length Shisa9/CKAMP44: residues 24-424 of Q9CZN4
# EGFP-CKAMP44 (cytoplasmic tail, 171-424AA): residues 171-424 of Q9CZN4
# EGFP-CKAMP44-ΔC (171-415AA): residues 171-415 of Q9CZN4
# EGFP-CKAMP44-ΔNΔC (199-415AA): residues 199-415 of Q9CZN4
# UniProt Q9NRD5: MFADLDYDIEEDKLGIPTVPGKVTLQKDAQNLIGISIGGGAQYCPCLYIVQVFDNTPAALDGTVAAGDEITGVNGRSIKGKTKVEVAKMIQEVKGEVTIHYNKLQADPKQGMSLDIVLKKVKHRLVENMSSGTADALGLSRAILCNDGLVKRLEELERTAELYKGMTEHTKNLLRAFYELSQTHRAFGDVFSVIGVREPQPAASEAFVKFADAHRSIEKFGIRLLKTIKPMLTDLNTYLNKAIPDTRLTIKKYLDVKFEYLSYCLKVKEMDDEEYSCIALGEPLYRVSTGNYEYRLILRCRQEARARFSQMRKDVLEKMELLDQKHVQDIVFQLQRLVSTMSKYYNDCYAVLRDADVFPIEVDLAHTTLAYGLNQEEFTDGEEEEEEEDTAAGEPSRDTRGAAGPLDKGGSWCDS
# Results are given in words; binding and its absence hold for the method and conditions named. Binding seen in cells or lysates may run through a third protein. Some entries that bind do so weakly or less than the wild type.
# Experiments:
# [1] = target: MYC-tagged full-length Shisa9/CKAMP44 (mouse) (UniProt Q9CZN4); experiment: co-IP; two tagged proteins overexpressed together in COS-7; IP buffer 50 mM Tris pH 7.5, 100 mM NaCl, 0.1-1% Triton-X; 2 μg antibody (FLAG, MYC or GFP; mIgG as control) 3 h at 4 °C, protein-G agarose; WB
# [2] = target: EGFP-CKAMP44 (cytoplasmic tail, 171-424AA) (mouse) (UniProt Q9CZN4); experiment: as above
# [3] = target: EGFP-CKAMP44-ΔC (171-415AA) (mouse) (UniProt Q9CZN4); experiment: as above
# [4] = target: EGFP-CKAMP44-ΔNΔC (199-415AA) (mouse) (UniProt Q9CZN4); experiment: as above
# [5] = target: FLAG-tagged full-length Shisa9/CKAMP44 (mouse) (UniProt Q9CZN4); experiment: co-IP; FLAG-CKAMP44-FL, MYC-PICK1 and EGFP-PKCα-WT expressed together in COS-7; pull-down of FLAG-CKAMP44-FL, mIgG as control; with or without PMA (1 μM, 30 min); WB
# [6] = target: FLAG-tagged full-length Shisa9/CKAMP44 (mouse) (UniProt Q9CZN4); experiment: co-IP; two tagged proteins overexpressed together in COS-7; IP buffer 50 mM Tris pH 7.5, 100 mM NaCl, 0.1-1% Triton-X; 2 μg antibody (FLAG, MYC or GFP; mIgG as control) 3 h at 4 °C, protein-G agarose; WB
substance,measurement,setting,value
FLAG-MAGI1 (from UniProt Q6RHR9-1 1-1471),binding,[1],binds
FLAG-PICK1 (from UniProt Q9NRD5 1-415),binding,[2],binds
same,binding,[3],binds
same,binding,[4],binds
EGFP-PKCα-WT (from UniProt P17252 1-672) (enzyme),binding,[5],binds
MYC-PICK1 (from UniProt Q9NRD5 1-415),binding,[5],binds
same,binding,[6],binds
